According to article PMC8540097, “Novel Oleanolic Acid-Tryptamine and -Fluorotryptamine Amides: From Adaptogens to Agents Targeting In Vitro Cell Apoptosis” (Plants, 2021):

Key:
[1] = test system: HeLa (cervical carcinoma); test: Cytotoxicity screening test, HeLa cells (resazurin, 72 h); assay type: cell-based, human; details: HeLa versus BJ
Description: (§1) The screening human cancer cell lines used in this investigation were CEM (T-lymphoblastic leukemia), MCF7 (breast carcinoma), HeLa (cervical carcinoma) and G-361 (malignant melanoma) from the European Collection of Authenticated Cell Cultures (Salisbury, UK). Human foreskin fibroblasts (BJ) were used as reference cells, and they were a kind gift from Prof. Bartek from Danish Cancer Society Center (Copenhagen, Denmark). Cells were cultured in DMEM (Dulbecco’s Modified Eagle Medium) or in RPMI 1640 medium (CEM). Media used were supplemented with 10% fetal or 20% (CEM) bovine serum, L-glutamine (2 mM), and 1% penicillin-streptomycin mixture (all from Sigma, MO, USA). The cell lines were maintained under standard cell culture conditions at 37 °C and 5% CO2 in a humid environment. Cells were subcultured twice or three times a week using the standard trypsinization procedure. A description of the experimental procedure used in the cytotoxicity screening tests was already published. The cell viability was measured after 72 h using resazurin (Sigma, St. Louis, MO, USA).

[2] = test system: G-361 (malignant melanoma); test: Cytotoxicity screening test, G-361 cells (resazurin, 72 h); assay type: cell-based, human; details: G-361 versus BJ
Description: as §1

## CC(=O)O[C@H]1CC[C@]2(C)[C@H]3CC=C4[C@@H]5CC(C)(C)CC[C@]5(C(=O)NCCc5c[nH]c6ccccc56)CC[C@@]4(C)[C@]3(C)CC[C@H]2C1(C)C [Compound 3a, Tryptamine amide of (3β)-3-(acetyloxy)olean-12-en-28-oic acid]
[1]
  Therapeutic Index TI (HeLa): 5
[2]
  Therapeutic Index TI (G-361): 5

## CC(=O)O[C@H]1CC[C@]2(C)[C@H]3CC=C4[C@@H]5CC(C)(C)CC[C@]5(C(=O)NCCc5c[nH]c6cc(F)ccc56)CC[C@@]4(C)[C@]3(C)CC[C@H]2C1(C)C [Compound 3b]
[1]
  Therapeutic Index TI (HeLa): 7
[2]
  Therapeutic Index TI (G-361): 3

## CC(=O)O[C@H]1CC[C@]2(C)[C@H]3CC=C4[C@@H]5CC(C)(C)CC[C@]5(C(=O)NCCc5c[nH]c6ccc(F)cc56)CC[C@@]4(C)[C@]3(C)CC[C@H]2C1(C)C [Compound 3c]
[1]
  Therapeutic Index TI (HeLa): 4

## CC1(C)CCC2(C(=O)NCCc3c[nH]c4cc(F)ccc34)CCC3(C)C(=CCC4C5(C)CCC(O)C(C)(C)C5CCC43C)C2C1 (stereo not shown) [Compound 4b]
[1]
  Therapeutic Index TI (HeLa): 2

## CC1(C)CCC2(C(=O)NCCc3c[nH]c4ccc(F)cc34)CCC3(C)C(=CCC4C5(C)CCC(O)C(C)(C)C5CCC43C)C2C1 (stereo not shown) [Compound 4c]
[1]
  Therapeutic Index TI (HeLa): 2.5
